Reference: PubChem BioAssay AID720505 (Drosophila RNAi Screening Center, 2013)

- Test: 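Knock-downs that reduce calcium influx once internal stores are emptied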 (primary screen)
- Cells: Drosophila S2R+ cells
- Knock-down reagent: long dsRNA against Drosophila genes
- Conditions: thapsigargin (2 µM) in calcium-free buffer to empty internal stores, then 2 mM calcium added back
- Measurement: 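Fluo-4 signal in 384-well plates read on a FLIPR after thapsigargin (2 µM, calcium-free) store depletion and 2 mM calcium add-back; unnormalised mean endpoint per well; screen run twice, selected wells retested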
- Reading the numbers: calcium signal and retest calcium signal: higher = more calcium entry after store depletion
- Call rule: 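About 1500 genes called as lowering calcium entry, by varying amounts, judged against per-plate control wells with STIM1 as positive and Rho1 as negative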
- Meaning of the calls: active = called as lowering calcium entry; inactive = not called
The screen tested about 20,000 reagents; shown is a random part of those that have a named target and a result. In the full data, about 2,100 (10%) are marked active. 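Raw plate signals without normalisation; calls rest on control-based scores that were not deposited; replicate 2 separates called from uncalled poorly.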 Reagents against one gene are numbered here. Names joined by + are all predicted targets of the reagent. The record does not give: the amount of reagent, the time to read-out.

For Cpr56F the deposit lists calcium signal, replicate 1 = 127; calcium signal, replicate 2 = 142; inactive.
vtd showed calcium signal, replicate 1 = 182; calcium signal, replicate 2 = 83.9; inactive.
With knock-down of Nep7 the results were calcium signal, replicate 1 = 107; calcium signal, replicate 2 = 120; inactive.
With knock-down of Ten-m #1, the record shows calcium signal, replicate 1 = 78.5; calcium signal, replicate 2 = 151; inactive.
With knock-down of Ten-m #2, the record shows calcium signal, replicate 1 = 95.2; calcium signal, replicate 2 = 110; inactive.
After knock-down of CG15140, the record shows calcium signal, replicate 1 = 131; calcium signal, replicate 2 = 108; inactive.
Against CG8079 #1, the values are calcium signal, replicate 1 = 113; calcium signal, replicate 2 = 107; inactive.
After knock-down of CG8079 #2, the screen gave calcium signal, replicate 1 = 94; calcium signal, replicate 2 = 180; inactive.
After knock-down of Polr3D the results were calcium signal, replicate 1 = 123; calcium signal, replicate 2 = 79.1; inactive.
Ugt36A1 + CG15418 showed calcium signal, replicate 1 = 156; calcium signal, replicate 2 = 92.7; inactive.
Against Det, the values are calcium signal, replicate 1 = 159; calcium signal, replicate 2 = 173; inactive.
After knock-down of stac #1, the screen gave calcium signal, replicate 1 = 141; calcium signal, replicate 2 = 135; inactive.
stac #2 scored calcium signal, replicate 1 = 109; calcium signal, replicate 2 = 204; inactive.
After knock-down of Tomosyn #1, the record shows calcium signal, replicate 1 = 200; calcium signal, replicate 2 = 109; inactive.
After knock-down of Tomosyn #2, the screen gave calcium signal, replicate 1 = 100; calcium signal, replicate 2 = 113; retest calcium signal, replicate 1 = 6159; retest calcium signal, replicate 2 = 87.5; inactive.
Depletion of Tomosyn #3 came out at: calcium signal, replicate 1 = 140; calcium signal, replicate 2 = 132; inactive.
After knock-down of Tomosyn #4 the results were calcium signal, replicate 1 = 76.3; calcium signal, replicate 2 = 88.5; retest calcium signal, replicate 1 = 7122; retest calcium signal, replicate 2 = 144; inactive.
Knock-down of CG30026 resulted in: calcium signal, replicate 1 = 90; calcium signal, replicate 2 = 125; inactive.
Depletion of CG13045 gave: calcium signal, replicate 1 = 115; calcium signal, replicate 2 = 174; inactive.
Silencing of CG13252 resulted in: calcium signal, replicate 1 = 108; calcium signal, replicate 2 = 130; inactive.
Silencing of Fkbp12 resulted in: calcium signal, replicate 1 = 182; calcium signal, replicate 2 = 126; inactive.
Knock-down of CG5819 gave: calcium signal, replicate 1 = 68.9; calcium signal, replicate 2 = 237; inactive.

Only “calcium signal, replicate 2”, for 4 of the entries above:
Det: 173
stac #1: 135
stac #2: 204
Tomosyn #1: 109

Further reagents:
CG43327 + CG43328 scored calcium signal, replicate 1 = 157; calcium signal, replicate 2 = 93.6; inactive.
With knock-down of CG30338 the results were calcium signal, replicate 1 = 73.8; calcium signal, replicate 2 = 65.7; active.
Knock-down of CG15279 came out at: calcium signal, replicate 1 = 115; calcium signal, replicate 2 = 126; inactive.
Knock-down of Dref gave: calcium signal, replicate 1 = 117; calcium signal, replicate 2 = 110; inactive.
Against MICU1, the entry reads calcium signal, replicate 1 = 80.9; calcium signal, replicate 2 = 184; inactive.
Ak2 showed calcium signal, replicate 1 = 74.3; calcium signal, replicate 2 = 131; inactive.
CG5466 #1 showed calcium signal, replicate 1 = 93.1; calcium signal, replicate 2 = 152; active.
CG5466 #2 gave calcium signal, replicate 1 = 133; calcium signal, replicate 2 = 114; inactive.
Against Orct2, the values are calcium signal, replicate 1 = 170; calcium signal, replicate 2 = 214; inactive.
Depletion of ImpL1 came out at: calcium signal, replicate 1 = 112; calcium signal, replicate 2 = 80.2; inactive.
For Gbeta76C the deposit lists calcium signal, replicate 1 = 107; calcium signal, replicate 2 = 86; inactive.
Silencing of Drl-2 #1 gave: calcium signal, replicate 1 = 74; calcium signal, replicate 2 = 97.9; inactive.
After knock-down of Drl-2 #2, the record shows calcium signal, replicate 1 = 79.1; calcium signal, replicate 2 = 133; inactive.
Silencing of Drl-2 #3 gave: calcium signal, replicate 1 = 93.4; calcium signal, replicate 2 = 123; inactive.
